Experimental data: PubChem BioAssay AID493014 (National Center for Advancing Translational Sciences (NCATS), 2011)
The list shows a part of the results. These are further read-outs of the screen, such as a control signal, another cell line or another target. No call is given for them. The list favours compounds with an active or inconclusive main result. Words in brackets tell the shape of the fitted curve; partial curves, single points and poor fits give uncertain potencies.

Test: qHTS Assay to Find Inhibitors of Chronic Active B-Cell Receptor Signaling
Conditions: ABC-DLBCL IkBa-CBG/CBR reporter, luminescence ratio (green luciferase fused to IkBa over red control in TMD8 lymphoma cells), 4 h
Procedure, shortened: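 TMD8 human ABC-DLBCL cells with doxycycline-inducible IκBα–green luciferase fusion and unfused red luciferase, in 0.5% FBS medium; compounds up to 46 uM, 4 h at 37C. Green/red luminescence ratio, filter-overlap corrected, fitted to concentration-response curves.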

[1] = measured here: CBR red luminescence, cell number

Row | SMILES | AC50 [1] | AC50 (measured here: IkBa-CBG green luminescence)
1 | COc1ccc(/C=C2/SC(=S)N(CCC(=O)O)C2=O)cc1 | 0.224 µM [falling, full curve, poor fit] | –
2 | Cc1nn2c(=S)[nH]nc2[nH]c1=O | 20 µM [rising, partial curve, poor fit] | –
3 | O=C(NCCCCCNC(=O)c1cccnc1)c1cccnc1 | 0.116 µM [falling, full curve, poor fit] | –
4 | O=C(NC1CC1)C1=C[C@@H](c2csc3ccccc23)C[C@@H](OCCCCO)O1 | 8.91 µM [falling, partial curve, poor fit] | –
5 | Cc1nn(-c2ccccc2)c2c1C(c1ccc(F)cc1)C(C#N)=C(N)O2 (configuration not stated) | 16.4 µM [falling, single point] | –
6 | Cc1cc(C(=O)C(=O)N(C)C)c(C)n1-c1ccc([N+](=O)[O-])cc1 | 8.2 µM [rising, partial curve, poor fit] | –
7 | O=C(CN1C(=O)NC2(CCCC2)C1=O)Nc1ccc(F)c([N+](=O)[O-])c1 | 14.1 µM [falling, single point] | –
8 | COCCCNC(=S)Nc1cccc(SC)c1 | 6.31 µM [falling, single point] | –
9 | Cc1cc([N+](=O)[O-])nn1CC(=O)NCc1cccs1 | 35.5 µM [falling, single point] | –
10 | COc1cccc(C2OC(=O)c3ccccc3N2C(C)=O)c1OC(C)=O (configuration not stated) | 3.26 µM [falling, single point] | –
11 | CC1CC(C)CN(C(=O)CSc2nnc(-c3ccc(Cl)cc3)o2)C1 (configuration not stated) | 32.6 µM [rising, single point] | –
12 | CC(=O)N(c1nc(/C=C\C(=O)O)cs1)c1ccccc1F | 0.447 µM [rising, full curve, poor fit] | –
13 | CN(CCCNC(=O)c1cc2c(Cl)nc3ccccc3c2s1)Cc1ccccc1 | 15.8 µM [falling, single point] | –
14 | CCOCCCn1c(SCC(=O)Nc2ccc(OC)cc2)nc2ccccc2c1=O | 0.562 µM [rising, full curve, poor fit] | –
15 | COC(=O)c1cc2ccsc2n1CC(=O)Nc1cc(Cl)ccc1OC | 0.731 µM [falling, partial curve, poor fit] | –
16 | Cc1cccc(C)c1OCC(=O)Nc1ncn[nH]1 | 0.146 µM [rising, full curve, poor fit] | –
17 | COc1cc(-c2noc(C)c2C#Cc2ccsc2)cc(OC)c1OC | 5.62 µM [rising, full curve] | 7.08 µM [falling, partial curve]
18 | CC(C)CC(=O)Nc1ccc(C(=O)Nc2cccc(O)c2)cc1 | 0.891 µM [falling, full curve, poor fit] | –
19 | O=[N+]([O-])c1ccc(CNc2ccc(Cl)cc2)s1 | 11.2 µM [rising, partial curve] | –
20 | O=c1[nH]c(=O)n(Cc2ccccc2)c2nc(-c3ccc(C(F)(F)F)cc3)n(CCO)c12 | 3.98 µM [rising, partial curve, poor fit] | –
21 | COc1cccc(/C=N/NC(=O)c2c(C)nc3ccc(Cl)cn23)c1O | 20 µM [falling, partial curve, poor fit] | –

Row | SMILES | AC50 [1] | AC50 (measured here: IkBa-CBG green luminescence)
22 | O=C(COc1ccccc1)Nc1ccc([N+](=O)[O-])cc1 | 5.8 µM [rising, full curve] | –
23 | CCc1ccccc1OCC(=O)Nc1cccc(S(=O)(=O)N2CCCC2)c1 | 13 µM [falling, partial curve] | –
24 | Cc1cc(=O)[nH]c2nnc(SCC(=O)Nc3ccc(OC(F)(F)F)cc3)n12 | 2.82 µM [rising, single point] | –
25 | COc1ccc(CCNC(=O)NC2CCCCC2)cc1OC | 29.1 µM [falling, single point] | –
26 | CCOc1ccc(NC(=O)COc2ccc(OC)cc2)cc1 | 22.4 µM [rising, single point] | –
27 | Cc1cccc(C)c1NC(=O)Cn1c(=O)n(CCCC(=O)NCc2ccco2)c(=O)c2sccc21 | 12.6 µM [rising, partial curve, poor fit] | –
28 | COc1cc2c(cc1NC(=O)c1ccc3c(c1)OCO3)oc1ccccc12 | 4.11 µM [rising, full curve, poor fit] | –
29 | COC(=O)c1c(NC(=O)COc2ncnc3ccccc23)sc(C)c1C | 5.17 µM [falling, partial curve, poor fit] | –
30 | Cc1c(C(=O)c2cccc(F)c2)c2ccccn2c1CCC#N | 35.5 µM [falling, single point] | –
31 | COc1ccc(-c2cc3c(=O)n(CC(=O)NC4CCN(Cc5ccccc5)CC4)ncn3n2)cc1 | 1.03 µM [falling, full curve, poor fit] | –
32 | COc1ccccc1NC(=O)NNC(=O)C(C)Oc1ccc2ccccc2c1 (configuration not stated) | 14.1 µM [rising, single point] | –
33 | O=C(NCCc1ccccc1)C(c1cccs1)N(C(=O)c1csnn1)C1CC1 (configuration not stated) | 22.4 µM [rising, single point] | –
34 | NC(=O)c1c(NC(=S)Nc2ccccc2)sc2c1CCCC2 | 1.12 µM [rising, full curve, poor fit] | –
35 | Cc1cc(C(=O)OCC(=O)c2ccc3c(c2)OCCO3)c(C)o1 | 35.5 µM [rising, partial curve, poor fit] | –
36 | O=C(Nc1cccc(O)c1)c1cc(-c2ccccc2Cl)on1 | 7.94 µM [falling, partial curve] | –
37 | CCS(=O)(=O)c1ccc(O)c(NC(=O)COc2ccc(C)cc2)c1 | 29.1 µM [falling, single point] | –
38 | Cn1c(/C=C/c2ccc(Br)cc2)nc2ccccc2c1=O | 0.0891 µM [rising, full curve, poor fit] | –
39 | COCCN(C(=O)COC(=O)/C=C/c1ccc2ccccc2n1)c1c(N)n(Cc2ccccc2)c(=O)[nH]c1=O | 7.08 µM [falling, full curve] | –
40 | CCc1ccc(C2CC(=O)NC(SCC(=O)OC(C)C)=C2C#N)cc1 (configuration not stated) | 6.51 µM [rising, single point] | –
41 | Cc1ccccc1CSc1nc(-c2ccccc2)cc(=O)[nH]1 | 2.91 µM [rising, partial curve] | –

Whole records, quoted from the list.
COc1ccc(-c2cc3c(=O)n(CC(=O)NC4CCN(Cc5ccccc5)CC4)ncn3n2)cc1 is entered as AC50 [1]: 1.03 µM [falling, full curve, poor fit]
Cc1cccc(C)c1NC(=O)Cn1c(=O)n(CCCC(=O)NCc2ccco2)c(=O)c2sccc21 is entered as AC50 [1]: 12.6 µM [rising, partial curve, poor fit]
